Test results taken from PubChem BioAssay AID540256 (National Center for Advancing Translational Sciences (NCATS), 2011).
Where “and” joins values, the source holds several entries; their conditions need not be identical. Equal entries are not always repeated. Out of some 300,000 compounds screened, about 3,700 (1.2%) were called active. Inconclusive results, whose numbers are uncertain, are shown with a selection of clear calls. Calls follow the shape of the full dose curve; tested in HEK293 cells. A potency beside an inconclusive call is a rough fit, not a confirmed value.

Assay: qHTS for Inhibitors of binding or entry into cells for Lassa Virus; also: nearly all actives have a fitted effect of over 50% in size
Conditions: Lassa virus pseudotype entry inhibition, cell reporter; activity change, negative = inhibition: at 37.9 µM (top of the series) unless noted
% is scaled to controls: 0 for no effect and ±100 for the full control effect; potency is read from the fitted curve at half-maximal effect.

Row | Structure (SMILES) | Potency | activity change, negative = inhibition
1 | Cc1cc(NC(=O)CSc2nc3c([nH]c4ccccc43)c(=O)n2-c2ccccc2F)no1 | inconclusive: 12.6 µM [inhibitor, partial curve, poor fit] and inconclusive: 17.8 µM [inhibitor, partial curve, poor fit] | 
2 | CCCOP(=O)(OCCC)C(Nc1ccc(C(C)C)cc1)c1ccc([N+](=O)[O-])cc1 (stereo not given) | inconclusive: 29.1 µM [inhibitor, single point] | 
3 | CCOc1ccc2[nH]c3c(NCCc4ccc(OC)c(OC)c4)ncnc3c2c1 | inconclusive: 12.6 µM [inhibitor, partial curve, poor fit] | 
4 | C[C@@H]1[C@H](c2ccccc2)c2cc3ccccc3nc2C(=O)C[C@@H]1C(=O)N1CCCC1 | inconclusive: 1.19 µM [inhibitor, single point] | 
5 | N#CCCN(C(=O)CSc1nc2nc(-c3cccs3)cc(C(F)(F)F)c2c(=O)[nH]1)c1ccccc1 | inconclusive: 31.6 µM [inhibitor, single point] | 
6 | Cn1c(-c2ccccc2)cc2c3no[n+]([O-])c3ccc21 | active: 4.47 µM | 
7 | N#CC1(NC(=O)CSc2nc3ccccc3s2)CCCCC1 |  | inactive: 16.3%
8 | CCOc1cccc2sc(N3CCN(C(=O)C(C)(C)C)CC3)nc12 | inconclusive: 35.5 µM [inhibitor, single point] | 
9 | CN(C)C(CNC(C(=O)Nc1ccc([N+](=O)[O-])cc1Br)c1ccccc1)c1ccccc1 (stereo not given) | inconclusive: 35.5 µM [inhibitor, single point] | 
10 | COC(=O)[C@@]1(Cc2ccc(OC)cc2)[C@H]2c3cc(C(=O)N(C)C)n(CCc4ccc(OC)c(Br)c4)c3C[C@H]2CN1C(=O)c1ccccc1 | inconclusive: 16.4 µM [inhibitor, single point] | 
11 | O=C(Cn1nc(-c2ccccc2)c2cnc3ccc(F)cc3c21)NC1CCCC1 |  | inactive: -14.1% [at 46.1 µM]
12 | O=C(c1cn(-c2ccccc2)nc1-c1cccc([N+](=O)[O-])c1)N1CCCCC1 |  | inactive: -29.9%
13 | NC(=O)c1ccc[n+](CCC[n+]2cccc(C(N)=O)c2)c1 |  | inactive: 4.34%
14 | CCn1c(=O)cc(SCC(=O)NCCN2CCN(Cc3ccccc3)CC2)c2ccccc21 | inconclusive: 1.83 µM [inhibitor, partial curve, poor fit] | 
15 | O=C(c1ccccc1)N1N=C(c2ccccc2)CC1c1ccccc1O (stereo not given) | inconclusive: 15.8 µM [inhibitor, single point] | 
16 | CNC(=O)C1CC(=O)N(Cc2ccc3c(c2)OCO3)C(=Nc2ccc(OC)cc2)S1 (stereo not given) | inconclusive: 29.1 µM [inhibitor, single point] | 
17 | Cc1cccc2c1N(N=O)CCC2 |  | inactive: 21.2%
18 | Cc1cc(S(=O)(=O)N2CCN(Cc3ccc4c(c3)OCO4)CC2)cc(C)c1N1CCCC1=O |  | inactive: -8.84%
19 | CN(C)CCCN(Cc1ccccc1)C(=S)Nc1cccc(C(F)(F)F)c1 | inconclusive: 14.1 µM [inhibitor, single point] | 
20 | CCNC(=O)C1CCCN(c2ncnc3onc(C)c23)C1 (stereo not given) | inconclusive: 2.82 µM [activator, partial curve, poor fit] | 

Row | Structure (SMILES) | Potency | activity change, negative = inhibition
21 | CCOC(=O)C1=C(C)NC(C)=C(C(=O)OCC)C1C(=O)OCC(=O)N(C)Cc1ccccc1 | inconclusive: 1.78 µM [inhibitor, partial curve, poor fit] | 
22 | COc1ccc(/C=C2/C(=O)ON=C2C)cc1Br | inconclusive: 10 µM [activator, partial curve, poor fit] | 
23 | CCOC(=O)N1CCN(C(=O)CN(Cc2ccccc2)S(=O)(=O)c2ccc(OC)c(C)c2)CC1 | inconclusive: 8.91 µM [inhibitor, partial curve, poor fit] | 
24 | O=C(Nc1ccccc1N1CCOCC1)c1ccc([N+](=O)[O-])o1 | inconclusive: 2 µM [inhibitor, partial curve, poor fit] | 
25 | Cc1oc2ccc(NS(=O)(=O)c3cccc4cccnc34)cc2c1C(=O)OC(C)C | inconclusive: 17.8 µM [inhibitor, single point] | 
26 | Cc1cccc(Cn2c(SCc3ccc(C(=O)NCc4ccccc4)cc3)nc3cccnc32)c1 | inconclusive: 35.5 µM [inhibitor, single point] | 
27 | CC1(C)CC(=O)C2=C(C1)NC1=C(C(=O)c3ccccc31)C2c1cc([N+](=O)[O-])ccc1O (stereo not given) | inconclusive: 14.1 µM [inhibitor, partial curve, poor fit] | 
28 | O=C(CCCC(=O)OCC(Cl)=C(Cl)Cl)Nc1ccccc1 | inconclusive: 3.98 µM [activator, partial curve, poor fit] | 
29 | Brc1ccc(-c2cn3ccccc3n2)cc1 | active: 2.82 µM | 
30 | Cc1ccc(NC(=O)Cn2nnc(C(=O)NCc3ccc(Cl)cc3)c2N)cc1F | inconclusive: 6.31 µM [activator, full curve, poor fit] | 
31 | O=C(Nc1ccc(Cl)cc1)N1CCC(CN2CCCCCC2)CC1 |  | inactive: 8.05% [at 46.1 µM]
32 | Cc1ccc(NC(=O)c2nnn(Cc3cccc(C(F)(F)F)c3)c2N)c(C)c1 | inconclusive: 6.31 µM [inhibitor, partial curve, poor fit] | 
33 | COc1cccc(Cn2ccn(-c3ccc(F)cc3)c(=O)c2=O)c1 |  | inactive: 9.17% [at 46.1 µM]
34 | O=C(NCC1CCCO1)c1nc2c(nnn2Cc2ccc(F)cc2)c(=O)[nH]1 (stereo not given) | inconclusive: 2.06 µM [activator, partial curve, poor fit] | 
35 | Cc1cc(C)c2nc(C(F)(F)F)c(C#N)c(N)c2c1 |  | inactive: 13%
36 | CC(NC(=O)C1CCN(C(=O)Nc2ccccc2)CC1)c1ccccc1 (stereo not given) |  | inactive: 16.3%
37 | c1ccc(Cc2noc(CN3CCCN(C4Cc5ccccc5C4)CC3)n2)cc1 | inconclusive: 1.26 µM [inhibitor, single point] | 
38 | O=[N+]([O-])c1ccccc1S(=O)(=O)NC1CCCCCCC1 | inconclusive: 35.5 µM [inhibitor, single point] | 
39 | COc1ccccc1NC(=O)CNC(=O)c1ccccc1 |  | inactive: -1.87%
40 | COC(=O)c1cn(NC(=O)C2COc3ccccc3O2)c(=O)c2ccccc12 (stereo not given) | inconclusive: 25.9 µM [activator, single point] | 

Reprinted, entries 26–28
Row | Structure (SMILES) | Potency | activity change, negative = inhibition
26 | Cc1cccc(Cn2c(SCc3ccc(C(=O)NCc4ccccc4)cc3)nc3cccnc32)c1 | inconclusive: 35.5 µM [inhibitor, single point] | 
27 | CC1(C)CC(=O)C2=C(C1)NC1=C(C(=O)c3ccccc31)C2c1cc([N+](=O)[O-])ccc1O (stereo not given) | inconclusive: 14.1 µM [inhibitor, partial curve, poor fit] | 
28 | O=C(CCCC(=O)OCC(Cl)=C(Cl)Cl)Nc1ccccc1 | inconclusive: 3.98 µM [activator, partial curve, poor fit] | 
